Results as given in the supplement of paper PMC10849652.
The list shows a part of the results.

Protein sequences, listed by entry. Tags and fused reporters are not part of them. Lines headed by an entry give the natural chain unless they say otherwise; changes in a name come on top.
UniProt Q01130: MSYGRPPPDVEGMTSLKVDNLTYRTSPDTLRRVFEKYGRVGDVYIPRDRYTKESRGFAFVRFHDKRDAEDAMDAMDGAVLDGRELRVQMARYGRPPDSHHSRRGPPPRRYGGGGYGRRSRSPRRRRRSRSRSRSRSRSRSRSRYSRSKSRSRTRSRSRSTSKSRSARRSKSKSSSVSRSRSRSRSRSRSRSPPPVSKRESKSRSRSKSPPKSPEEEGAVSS
UniProt Q8WW59: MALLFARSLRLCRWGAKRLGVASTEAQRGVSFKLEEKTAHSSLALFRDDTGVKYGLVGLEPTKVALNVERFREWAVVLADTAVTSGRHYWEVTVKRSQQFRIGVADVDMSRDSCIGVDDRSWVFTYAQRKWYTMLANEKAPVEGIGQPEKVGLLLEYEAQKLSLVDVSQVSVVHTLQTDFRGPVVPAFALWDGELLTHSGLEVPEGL
UniProt P50502: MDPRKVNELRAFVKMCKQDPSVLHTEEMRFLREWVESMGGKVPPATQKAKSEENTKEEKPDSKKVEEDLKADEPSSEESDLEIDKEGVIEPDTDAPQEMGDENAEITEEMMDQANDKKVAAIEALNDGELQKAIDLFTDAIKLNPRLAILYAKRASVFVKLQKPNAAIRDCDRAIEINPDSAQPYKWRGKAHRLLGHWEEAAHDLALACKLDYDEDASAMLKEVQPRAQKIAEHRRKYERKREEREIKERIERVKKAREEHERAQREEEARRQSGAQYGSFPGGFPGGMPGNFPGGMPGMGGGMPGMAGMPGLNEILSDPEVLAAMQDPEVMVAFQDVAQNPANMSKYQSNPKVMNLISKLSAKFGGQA
UniProt P84103: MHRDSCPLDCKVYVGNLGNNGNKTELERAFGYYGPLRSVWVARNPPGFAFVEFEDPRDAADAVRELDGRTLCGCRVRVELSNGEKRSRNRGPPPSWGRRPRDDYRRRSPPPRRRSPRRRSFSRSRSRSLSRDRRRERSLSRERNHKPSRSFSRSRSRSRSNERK
UniProt Q9Y5M8: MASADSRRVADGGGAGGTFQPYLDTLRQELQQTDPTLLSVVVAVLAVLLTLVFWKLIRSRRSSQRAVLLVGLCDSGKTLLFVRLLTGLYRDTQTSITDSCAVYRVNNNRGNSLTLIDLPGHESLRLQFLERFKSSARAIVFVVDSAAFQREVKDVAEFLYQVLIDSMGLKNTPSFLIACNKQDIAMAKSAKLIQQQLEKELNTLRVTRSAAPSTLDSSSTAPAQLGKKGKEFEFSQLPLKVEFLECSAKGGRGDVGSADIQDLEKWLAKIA
UniProt P16150: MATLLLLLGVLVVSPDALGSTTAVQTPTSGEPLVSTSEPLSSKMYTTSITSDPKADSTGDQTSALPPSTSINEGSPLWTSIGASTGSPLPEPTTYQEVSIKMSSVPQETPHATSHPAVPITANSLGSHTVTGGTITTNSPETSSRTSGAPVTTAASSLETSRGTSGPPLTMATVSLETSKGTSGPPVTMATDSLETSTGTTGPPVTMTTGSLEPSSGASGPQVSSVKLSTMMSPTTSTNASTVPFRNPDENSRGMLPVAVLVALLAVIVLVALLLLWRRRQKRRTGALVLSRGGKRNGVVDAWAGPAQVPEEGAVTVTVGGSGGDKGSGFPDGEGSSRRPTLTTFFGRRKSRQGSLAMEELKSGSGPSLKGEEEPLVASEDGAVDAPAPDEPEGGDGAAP
UniProt P30626: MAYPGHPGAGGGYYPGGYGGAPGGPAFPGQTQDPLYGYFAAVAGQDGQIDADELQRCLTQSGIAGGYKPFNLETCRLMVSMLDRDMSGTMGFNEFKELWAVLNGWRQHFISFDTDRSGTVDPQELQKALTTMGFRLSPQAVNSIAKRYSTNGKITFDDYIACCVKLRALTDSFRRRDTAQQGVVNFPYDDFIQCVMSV
UniProt Q8TCT8: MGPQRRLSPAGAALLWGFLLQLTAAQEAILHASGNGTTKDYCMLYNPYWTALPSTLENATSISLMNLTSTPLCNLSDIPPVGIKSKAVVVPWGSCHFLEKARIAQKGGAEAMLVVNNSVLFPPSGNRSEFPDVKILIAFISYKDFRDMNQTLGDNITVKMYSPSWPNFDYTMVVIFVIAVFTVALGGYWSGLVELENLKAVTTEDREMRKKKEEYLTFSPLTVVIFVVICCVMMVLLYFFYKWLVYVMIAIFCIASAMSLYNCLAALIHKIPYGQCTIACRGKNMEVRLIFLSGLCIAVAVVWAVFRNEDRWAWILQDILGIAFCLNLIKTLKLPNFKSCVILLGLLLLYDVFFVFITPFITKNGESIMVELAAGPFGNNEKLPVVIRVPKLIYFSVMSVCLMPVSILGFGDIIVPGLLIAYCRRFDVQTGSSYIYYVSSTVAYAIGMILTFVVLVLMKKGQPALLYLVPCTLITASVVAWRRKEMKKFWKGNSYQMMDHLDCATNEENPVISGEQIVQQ
UniProt O76094: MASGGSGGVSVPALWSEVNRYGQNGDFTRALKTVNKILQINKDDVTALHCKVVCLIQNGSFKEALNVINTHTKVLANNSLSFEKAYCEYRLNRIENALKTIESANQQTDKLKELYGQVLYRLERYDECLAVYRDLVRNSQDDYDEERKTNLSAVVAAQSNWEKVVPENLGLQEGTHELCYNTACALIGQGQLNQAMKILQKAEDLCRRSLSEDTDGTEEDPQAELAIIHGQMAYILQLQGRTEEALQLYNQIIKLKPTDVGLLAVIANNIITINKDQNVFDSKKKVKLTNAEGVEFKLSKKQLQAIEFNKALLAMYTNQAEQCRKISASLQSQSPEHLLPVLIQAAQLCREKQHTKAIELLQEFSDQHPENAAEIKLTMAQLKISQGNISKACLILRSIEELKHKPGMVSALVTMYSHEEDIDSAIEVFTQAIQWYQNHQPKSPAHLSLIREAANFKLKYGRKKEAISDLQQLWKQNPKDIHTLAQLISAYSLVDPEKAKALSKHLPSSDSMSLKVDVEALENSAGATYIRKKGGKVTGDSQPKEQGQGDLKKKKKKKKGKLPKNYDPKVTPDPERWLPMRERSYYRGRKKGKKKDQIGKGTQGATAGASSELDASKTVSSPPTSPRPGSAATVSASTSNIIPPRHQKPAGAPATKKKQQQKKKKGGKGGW
UniProt Q07955, whole entry, looked up: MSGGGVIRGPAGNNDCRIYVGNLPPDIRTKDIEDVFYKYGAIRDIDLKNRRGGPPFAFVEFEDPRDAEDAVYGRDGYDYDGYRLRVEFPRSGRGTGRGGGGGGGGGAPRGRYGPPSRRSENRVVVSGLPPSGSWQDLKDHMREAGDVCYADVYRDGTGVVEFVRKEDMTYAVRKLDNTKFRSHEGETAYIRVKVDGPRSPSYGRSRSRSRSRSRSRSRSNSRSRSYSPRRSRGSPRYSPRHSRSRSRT
UniProt Q5M775: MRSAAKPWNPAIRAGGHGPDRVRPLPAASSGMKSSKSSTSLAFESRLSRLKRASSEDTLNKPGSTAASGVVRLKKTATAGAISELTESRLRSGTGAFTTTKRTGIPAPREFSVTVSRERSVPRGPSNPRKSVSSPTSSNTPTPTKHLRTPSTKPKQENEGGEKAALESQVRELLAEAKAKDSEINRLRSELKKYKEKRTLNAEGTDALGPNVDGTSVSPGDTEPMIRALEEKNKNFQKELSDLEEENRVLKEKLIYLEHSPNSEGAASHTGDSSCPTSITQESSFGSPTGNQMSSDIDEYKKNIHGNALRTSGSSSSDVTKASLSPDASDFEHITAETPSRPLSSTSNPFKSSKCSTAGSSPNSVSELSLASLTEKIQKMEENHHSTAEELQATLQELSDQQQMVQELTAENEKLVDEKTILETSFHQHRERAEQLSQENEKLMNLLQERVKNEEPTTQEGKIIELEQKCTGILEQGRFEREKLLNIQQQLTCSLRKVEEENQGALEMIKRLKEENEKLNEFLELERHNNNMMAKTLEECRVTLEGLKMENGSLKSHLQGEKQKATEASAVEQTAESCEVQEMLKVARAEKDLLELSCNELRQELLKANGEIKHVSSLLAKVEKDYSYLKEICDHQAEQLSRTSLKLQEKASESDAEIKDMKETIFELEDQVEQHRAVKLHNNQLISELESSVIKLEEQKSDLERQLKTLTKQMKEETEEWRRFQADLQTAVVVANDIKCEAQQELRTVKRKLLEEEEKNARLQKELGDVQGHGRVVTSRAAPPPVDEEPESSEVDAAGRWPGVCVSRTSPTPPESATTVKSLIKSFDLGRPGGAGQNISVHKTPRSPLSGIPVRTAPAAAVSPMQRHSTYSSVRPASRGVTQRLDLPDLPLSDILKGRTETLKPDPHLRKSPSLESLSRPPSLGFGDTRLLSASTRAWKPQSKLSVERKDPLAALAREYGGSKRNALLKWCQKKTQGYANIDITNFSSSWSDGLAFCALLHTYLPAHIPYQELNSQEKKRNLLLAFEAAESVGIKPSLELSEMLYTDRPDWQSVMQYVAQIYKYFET
UniProt Q16385, whole entry, looked up: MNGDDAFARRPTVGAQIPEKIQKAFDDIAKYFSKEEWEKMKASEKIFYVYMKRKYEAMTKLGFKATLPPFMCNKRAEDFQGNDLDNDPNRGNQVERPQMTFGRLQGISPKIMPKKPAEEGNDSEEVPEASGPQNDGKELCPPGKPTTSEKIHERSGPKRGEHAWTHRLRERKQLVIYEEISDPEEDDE
UniProt Q9HD15: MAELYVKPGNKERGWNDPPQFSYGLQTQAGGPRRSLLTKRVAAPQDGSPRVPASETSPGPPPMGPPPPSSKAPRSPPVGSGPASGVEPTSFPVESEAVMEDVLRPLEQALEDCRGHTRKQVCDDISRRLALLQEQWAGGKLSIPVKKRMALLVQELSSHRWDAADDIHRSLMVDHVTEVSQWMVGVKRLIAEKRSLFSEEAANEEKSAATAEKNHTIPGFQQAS
UniProt Q5W111: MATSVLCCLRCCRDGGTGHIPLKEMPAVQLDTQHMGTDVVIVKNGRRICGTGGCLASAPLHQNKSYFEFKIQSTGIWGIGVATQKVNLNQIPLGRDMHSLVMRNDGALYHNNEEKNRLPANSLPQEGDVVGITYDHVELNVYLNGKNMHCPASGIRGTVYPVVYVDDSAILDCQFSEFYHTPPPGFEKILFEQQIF
UniProt Q15005: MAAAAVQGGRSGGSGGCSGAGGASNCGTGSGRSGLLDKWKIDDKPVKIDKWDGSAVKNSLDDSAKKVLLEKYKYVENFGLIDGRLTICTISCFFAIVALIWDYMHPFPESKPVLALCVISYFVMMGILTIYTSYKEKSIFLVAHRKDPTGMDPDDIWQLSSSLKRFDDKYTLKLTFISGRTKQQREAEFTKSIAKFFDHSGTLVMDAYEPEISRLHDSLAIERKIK
UniProt Q9UHB9: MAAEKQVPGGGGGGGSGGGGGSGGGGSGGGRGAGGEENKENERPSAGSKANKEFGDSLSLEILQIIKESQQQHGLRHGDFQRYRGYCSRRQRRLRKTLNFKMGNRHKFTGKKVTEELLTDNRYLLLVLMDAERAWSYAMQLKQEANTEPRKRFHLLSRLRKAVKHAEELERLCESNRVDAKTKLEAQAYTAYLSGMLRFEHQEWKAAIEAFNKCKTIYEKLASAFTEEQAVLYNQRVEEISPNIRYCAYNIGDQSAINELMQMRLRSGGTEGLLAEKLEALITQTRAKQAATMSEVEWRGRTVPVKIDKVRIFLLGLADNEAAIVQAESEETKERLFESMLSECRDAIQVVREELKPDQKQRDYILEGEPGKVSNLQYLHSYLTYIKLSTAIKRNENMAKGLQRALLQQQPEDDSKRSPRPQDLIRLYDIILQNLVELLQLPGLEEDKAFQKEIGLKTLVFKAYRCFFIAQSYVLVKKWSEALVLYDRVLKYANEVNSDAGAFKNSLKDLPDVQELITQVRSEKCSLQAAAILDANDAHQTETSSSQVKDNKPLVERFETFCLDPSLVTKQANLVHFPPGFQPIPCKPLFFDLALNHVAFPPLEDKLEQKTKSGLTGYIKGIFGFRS
UniProt Q9NYA1, whole entry, looked up: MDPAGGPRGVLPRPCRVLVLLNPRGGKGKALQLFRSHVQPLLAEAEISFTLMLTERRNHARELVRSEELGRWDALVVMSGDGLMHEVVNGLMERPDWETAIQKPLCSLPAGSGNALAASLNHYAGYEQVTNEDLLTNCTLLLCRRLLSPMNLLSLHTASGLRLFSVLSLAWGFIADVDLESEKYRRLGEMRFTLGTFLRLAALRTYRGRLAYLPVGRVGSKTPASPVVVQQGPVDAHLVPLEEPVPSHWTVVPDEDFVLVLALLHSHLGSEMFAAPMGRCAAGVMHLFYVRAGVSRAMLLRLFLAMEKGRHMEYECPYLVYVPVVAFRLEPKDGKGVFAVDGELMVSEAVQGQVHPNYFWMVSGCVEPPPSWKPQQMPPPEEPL
UniProt Q9NZD8: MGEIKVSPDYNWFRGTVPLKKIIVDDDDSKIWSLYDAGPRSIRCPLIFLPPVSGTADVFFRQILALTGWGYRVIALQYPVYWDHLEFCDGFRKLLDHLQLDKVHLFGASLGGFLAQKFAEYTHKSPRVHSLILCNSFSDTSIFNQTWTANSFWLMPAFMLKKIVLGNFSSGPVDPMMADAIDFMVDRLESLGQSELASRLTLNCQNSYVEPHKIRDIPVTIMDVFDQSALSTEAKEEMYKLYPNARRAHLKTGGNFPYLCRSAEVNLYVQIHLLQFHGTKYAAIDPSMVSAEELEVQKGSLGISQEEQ

Tests used:
Test in all cases: log2 fold change, soluble protein after heating vs DMSO (PISA); higher = thermal stabilisation; K562 cells, 10 uM, 30 min; active = over 0.2 and 3.5 SD of the protein, either way, in both replicates (recomputed)
[1] = compound: NC(=O)Nc1cc(-c2cccc(F)c2)sc1C(=O)N[C@H]1CCCNC1
Summary of the method: (§1)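 Soluble protein was quantified by TMTpro 16plex LC-MS/MS after channel sums were equalised. It was obtained as the supernatant after 21,000xg for 90 min from pooled aliquots of K562 cells (2×10^6 cells/mL, 10 μM compound, 30 min) heated for 3 min across 48°C-58°C and extracted in PBS with 0.5% NP-40 at 4°C. Thermal stability values are relative to control samples and come from duplicates. They are given as log2 fold changes.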

[2] = compound: NC(=O)c1cnc(N[C@@H]2CCCC[C@@H]2N)nc1Nc1cccc(-n2nccn2)c1
Summary of the method: as §1

[3] = compound: NC1(c2ccc(-c3nc4ccn5c(=O)[nH]nc5c4cc3-c3ccccc3)cc2)CCC1
Summary of the method: as §1

[4] = compound: NCC(=O)Nc1ccc(-n2nc(C(F)(F)F)cc2-c2ccc3c(ccc4ccccc43)c2)cc1
Summary of the method: as §1

entinostat = compound: Nc1ccccc1NC(=O)c1ccc(CNC(=O)OCc2cccnc2)cc1 [entinostat]
Summary of the method: as §1

vorinostat = compound: O=C(CCCCCCC(=O)Nc1ccccc1)NO [vorinostat]
Summary of the method: as §1

citarinostat = compound: O=C(CCCCCCNC(=O)c1cnc(N(c2ccccc2)c2ccccc2Cl)nc1)NO [citarinostat]
Summary of the method: as §1

silmitasertib = compound: O=C(O)c1ccc2c(c1)nc(Nc1cccc(Cl)c1)c1ccncc12 [silmitasertib]
Summary of the method: as §1

[5] = compound: O=C1NC(=O)C(c2cnc3ccccn23)=C1c1cn2c3c(cc(F)cc13)CN(C(=O)N1CCCCC1)CC2
Summary of the method: as §1

[6] = compound: c1cc(OCCN2CCCCC2)cc(-c2n[nH]c3ccc(-c4nnc[nH]4)cc23)c1
Summary of the method: as §1

Measured: log2 fold change

SPTB isoform 2 (UniProt P11277)
inactive: [1] -0.505 | [2] -0.115 | [3] 0.086 | [4] 0.019 | entinostat -0.343 | vorinostat 0.132 | citarinostat 0.042 | silmitasertib 0.284 | [5] -0.046 | [6] -0.098

SRSF2 (UniProt Q01130)
inactive: [1] -0.056 | [2] 0.04 | [3] 0.139 | [4] -0.006 | entinostat -0.067 | vorinostat -0.057 | citarinostat -0.04 | silmitasertib -0.062 | [5] 0.059 | [6] -0.081

SPRYD4 (UniProt Q8WW59)
inactive: [1] -0.008 | [2] -0.048 | [3] -0.042 | [4] -0.071 | entinostat -0.021 | vorinostat 0.025 | citarinostat 0.054 | silmitasertib 0.004 | [5] -0.03 | [6] -0.034

ST13 (UniProt P50502)
inactive: [1] 0.001 | [2] -0.053 | [3] -0.124 | [4] -0.055 | entinostat 0.025 | vorinostat -0.007 | citarinostat 0.008 | silmitasertib -0.004 | [5] -0.034 | [6] -0.03

SPECC1L (UniProt Q69YQ0)
inactive: [1] -0.024 | [2] 0.03 | [3] -0.056 | [4] 0.006 | entinostat -0.04 | vorinostat -0.076 | citarinostat 0.042 | silmitasertib 0.018 | [5] -0.081 | [6] -0.029

SSRP1 (UniProt Q08945)
inactive: [1] -0.017 | [2] -0.012 | [3] -0.078 | [4] 0.003 | entinostat 0.007 | vorinostat 0.059 | citarinostat 0.155 | silmitasertib 0.007 | [5] -0.171 | [6] -0.013

SRSF3 (UniProt P84103)
inactive: [1] -0.05 | [2] 0.148 | [3] 0.396 | [4] 0.064 | entinostat -0.126 | vorinostat -0.026 | citarinostat -0.105 | silmitasertib -0.033 | [5] 0.194 | [6] -0.141

STAT6 (UniProt P42226)
inactive: [1] -0.07 | [2] -0.065 | [3] -0.041 | [4] -0.268 | entinostat 0.044 | vorinostat 0.108 | citarinostat 0.061 | silmitasertib 0.041 | [5] -0.047 | [6] 0.03

SRPRB (UniProt Q9Y5M8)
inactive: [1] 0.048 | [2] 0.028 | [3] -0.056 | [4] -0.038 | entinostat 0.045 | vorinostat 0.029 | citarinostat 0.029 | silmitasertib -0.007 | [5] -0.014 | [6] 0.045

STARD9 (UniProt Q9P2P6)
inactive: [1] -0.179 | [2] -0.029 | [3] 0.058 | [4] 0.073 | entinostat 0.007 | vorinostat 0 | citarinostat -0.026 | silmitasertib 0.025 | [5] -0.048 | [6] 0.028

SPN (UniProt P16150)
inactive: [1] -0.003 | [2] 0.044 | [3] 0.087 | [4] 0.031 | entinostat -0.059 | vorinostat -0.058 | citarinostat -0.016 | silmitasertib -0.056 | [5] -0.068 | [6] -0.006

STAU2 (UniProt Q9NUL3)
inactive: [1] 0.007 | [2] -0.052 | [3] 0.385 | [4] 0.035 | entinostat 0.042 | vorinostat 0.008 | citarinostat -0.012 | silmitasertib 0.104 | [5] 0.029 | [6] -0.157

SRI (UniProt P30626)
inactive: [1] -0.014 | [2] 0.081 | [3] -0.04 | [4] 0 | entinostat 0.058 | vorinostat -0.044 | citarinostat 0.027 | silmitasertib -0.004 | [5] -0.045 | [6] -0.038

SRRT (UniProt Q9BXP5)
inactive: [1] -0.052 | [2] -0.086 | [3] -0.218 | [4] -0.124 | entinostat 0.187 | vorinostat 0.171 | citarinostat 0.137 | silmitasertib -0.097 | [5] -0.073 | [6] 0.016

SPPL2A (UniProt Q8TCT8)
inactive: [1] 0.032 | [2] -0.027 | [3] -0.043 | [4] 0.021 | entinostat 0.012 | vorinostat 0.049 | citarinostat 0.03 | silmitasertib 0 | [5] 0.115 | [6] -0.009

STK26 (UniProt Q9P289)
inactive: [1] 0.07 | [2] -0.005 | [3] -0.111 | [4] -0.057 | entinostat -0.063 | vorinostat 0.034 | citarinostat 0.092 | silmitasertib 0.069 | [5] -0.017 | [6] -0.007

SRP72 (UniProt O76094)
inactive: [1] -0.088 | [2] -0.054 | [3] -0.082 | [4] -0.128 | entinostat 0.069 | vorinostat 0.103 | citarinostat 0.095 | silmitasertib 0.042 | [5] 0.105 | [6] -0.129

SRSF1 (UniProt Q07955)
inactive: [1] 0 | [2] 0.12 | [3] 0.371 | [4] 0.067 | entinostat -0.065 | vorinostat -0.065 | citarinostat -0.094 | silmitasertib -0.004 | [5] 0.243 | [6] -0.233

SPECC1 (UniProt Q5M775)
inactive: [1] -0.126 | [2] -0.053 | [3] -0.124 | [4] -0.132 | entinostat -0.007 | vorinostat 0 | citarinostat -0.213 | silmitasertib 0.08 | [5] -0.06 | [6] -0.091

SPCS1, A0A5F9YFS9
inactive: [1] 0.044 | [2] -0.097 | [3] -0.05 | [4] -0.06 | entinostat -0.013 | vorinostat 0 | citarinostat -0.262 | silmitasertib -0.021 | [5] -0.156 | [6] 0.014

SQSTM1 (UniProt Q13501)
inactive: [1] -0.036 | [2] -0.12 | [3] -0.068 | [4] -0.079 | entinostat 0.051 | vorinostat 0.007 | citarinostat 0.081 | silmitasertib 0.056 | [5] 0.019 | [6] -0.094

SSX2 (UniProt Q16385)
inactive: [1] -0.049 | [2] -0.094 | [3] -0.02 | [4] -0.057 | entinostat -0.054 | vorinostat -0.022 | citarinostat -0.025 | silmitasertib 0.011 | [5] -0.098 | [6] 0.033

SRA1 (UniProt Q9HD15)
inactive: [1] -0.033 | [2] -0.035 | [3] -0.034 | [4] -0.026 | entinostat -0.003 | vorinostat 0.002 | citarinostat 0.086 | silmitasertib -0.022 | [5] -0.107 | [6] -0.063

SPRYD7 (UniProt Q5W111)
inactive: [1] -0.045 | [2] -0.064 | [3] -0.041 | [4] 0.024 | entinostat 0.028 | vorinostat -0.16 | citarinostat 0.048 | silmitasertib 0.023 | [5] -0.012 | [6] 0.039

SPCS2 (UniProt Q15005)
inactive: [1] 0 | [2] -0.002 | [3] -0.072 | [4] 0.143 | entinostat 0.016 | vorinostat 0.024 | citarinostat 0.224 | silmitasertib -0.001 | [5] -0.021 | [6] 0.23

SRP68 (UniProt Q9UHB9)
inactive: [1] -0.068 | [2] -0.08 | [3] -0.094 | [4] -0.035 | entinostat 0.101 | vorinostat 0.08 | citarinostat 0.095 | silmitasertib 0.08 | [5] 0.096 | [6] -0.062

Copied from the entries so far (nine entries):
SRP72 (UniProt O76094)
inactive: [1] -0.088 | [2] -0.054 | [3] -0.082 | [4] -0.128 | entinostat 0.069 | vorinostat 0.103 | citarinostat 0.095 | silmitasertib 0.042 | [5] 0.105 | [6] -0.129

SRSF1 (UniProt Q07955)
inactive: [1] 0 | [2] 0.12 | [3] 0.371 | [4] 0.067 | entinostat -0.065 | vorinostat -0.065 | citarinostat -0.094 | silmitasertib -0.004 | [5] 0.243 | [6] -0.233

SPECC1 (UniProt Q5M775)
inactive: [1] -0.126 | [2] -0.053 | [3] -0.124 | [4] -0.132 | entinostat -0.007 | vorinostat 0 | citarinostat -0.213 | silmitasertib 0.08 | [5] -0.06 | [6] -0.091

SPCS1, A0A5F9YFS9
inactive: [1] 0.044 | [2] -0.097 | [3] -0.05 | [4] -0.06 | entinostat -0.013 | vorinostat 0 | citarinostat -0.262 | silmitasertib -0.021 | [5] -0.156 | [6] 0.014

SQSTM1 (UniProt Q13501)
inactive: [1] -0.036 | [2] -0.12 | [3] -0.068 | [4] -0.079 | entinostat 0.051 | vorinostat 0.007 | citarinostat 0.081 | silmitasertib 0.056 | [5] 0.019 | [6] -0.094

SSX2 (UniProt Q16385)
inactive: [1] -0.049 | [2] -0.094 | [3] -0.02 | [4] -0.057 | entinostat -0.054 | vorinostat -0.022 | citarinostat -0.025 | silmitasertib 0.011 | [5] -0.098 | [6] 0.033

SRA1 (UniProt Q9HD15)
inactive: [1] -0.033 | [2] -0.035 | [3] -0.034 | [4] -0.026 | entinostat -0.003 | vorinostat 0.002 | citarinostat 0.086 | silmitasertib -0.022 | [5] -0.107 | [6] -0.063

SPRYD7 (UniProt Q5W111)
inactive: [1] -0.045 | [2] -0.064 | [3] -0.041 | [4] 0.024 | entinostat 0.028 | vorinostat -0.16 | citarinostat 0.048 | silmitasertib 0.023 | [5] -0.012 | [6] 0.039

SPCS2 (UniProt Q15005)
inactive: [1] 0 | [2] -0.002 | [3] -0.072 | [4] 0.143 | entinostat 0.016 | vorinostat 0.024 | citarinostat 0.224 | silmitasertib -0.001 | [5] -0.021 | [6] 0.23

(cont.)

STAU1 (UniProt O95793)
inactive: [1] 0.068 | [2] 0.094 | [3] 0.325 | [4] 0.105 | entinostat -0.063 | vorinostat 0.008 | citarinostat -0.133 | silmitasertib 0.182 | [5] 0.211 | [6] -0.349

SPHK1 isoform 2 (UniProt Q9NYA1)
inactive: [1] -0.028 | [2] 0.031 | [3] -0.023 | [4] 0.032 | entinostat -0.034 | vorinostat 0.008 | citarinostat -0.006 | silmitasertib -0.029 | [5] -0.026 | [6] -0.017

SRSF4 (UniProt Q08170)
inactive: [1] -0.059 | [2] 0.036 | [3] 0.196 | [4] 0.03 | entinostat -0.002 | vorinostat -0.02 | citarinostat -0.028 | silmitasertib -0.005 | [5] 0.206 | [6] -0.228

SPG21 (UniProt Q9NZD8)
inactive: [1] 0.072 | [3] -0.054 | [4] 0.123 | entinostat 0.004 | vorinostat 0.013 | citarinostat -0.001 | silmitasertib -0.013 | [5] -0.104 | [6] 0.007
active: [2] 0.305
